According to the supplement of paper PMC10849652:
This is one part of the list.

Chains of the proteins cited; added tags and fusions are not shown. Lines headed by an entry give the natural chain unless they say otherwise; changes in a name come on top.
UniProt Q6NS38: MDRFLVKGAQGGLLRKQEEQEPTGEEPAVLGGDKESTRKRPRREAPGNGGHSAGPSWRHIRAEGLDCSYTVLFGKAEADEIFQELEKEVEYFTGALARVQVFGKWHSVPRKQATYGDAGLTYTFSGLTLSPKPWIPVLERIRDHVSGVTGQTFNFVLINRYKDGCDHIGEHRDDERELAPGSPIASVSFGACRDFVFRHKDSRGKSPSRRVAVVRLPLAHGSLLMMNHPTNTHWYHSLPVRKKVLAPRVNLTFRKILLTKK
UniProt Q13155: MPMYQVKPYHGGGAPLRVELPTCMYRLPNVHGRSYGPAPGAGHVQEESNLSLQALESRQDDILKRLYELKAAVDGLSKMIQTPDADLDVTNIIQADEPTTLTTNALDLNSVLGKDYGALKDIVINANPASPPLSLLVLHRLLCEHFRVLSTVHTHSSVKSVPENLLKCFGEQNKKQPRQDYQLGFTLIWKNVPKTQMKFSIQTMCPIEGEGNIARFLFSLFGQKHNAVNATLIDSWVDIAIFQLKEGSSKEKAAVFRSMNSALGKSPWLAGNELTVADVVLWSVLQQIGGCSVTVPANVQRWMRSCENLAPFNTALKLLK
UniProt Q96SZ5, whole entry, looked up: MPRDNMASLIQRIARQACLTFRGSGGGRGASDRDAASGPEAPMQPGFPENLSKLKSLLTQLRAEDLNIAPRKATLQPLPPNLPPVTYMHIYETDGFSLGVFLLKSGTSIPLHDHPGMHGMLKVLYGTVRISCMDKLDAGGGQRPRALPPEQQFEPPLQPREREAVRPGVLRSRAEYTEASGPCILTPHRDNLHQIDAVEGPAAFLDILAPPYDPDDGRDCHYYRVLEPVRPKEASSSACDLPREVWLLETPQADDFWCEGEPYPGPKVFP
UniProt Q9H6U8: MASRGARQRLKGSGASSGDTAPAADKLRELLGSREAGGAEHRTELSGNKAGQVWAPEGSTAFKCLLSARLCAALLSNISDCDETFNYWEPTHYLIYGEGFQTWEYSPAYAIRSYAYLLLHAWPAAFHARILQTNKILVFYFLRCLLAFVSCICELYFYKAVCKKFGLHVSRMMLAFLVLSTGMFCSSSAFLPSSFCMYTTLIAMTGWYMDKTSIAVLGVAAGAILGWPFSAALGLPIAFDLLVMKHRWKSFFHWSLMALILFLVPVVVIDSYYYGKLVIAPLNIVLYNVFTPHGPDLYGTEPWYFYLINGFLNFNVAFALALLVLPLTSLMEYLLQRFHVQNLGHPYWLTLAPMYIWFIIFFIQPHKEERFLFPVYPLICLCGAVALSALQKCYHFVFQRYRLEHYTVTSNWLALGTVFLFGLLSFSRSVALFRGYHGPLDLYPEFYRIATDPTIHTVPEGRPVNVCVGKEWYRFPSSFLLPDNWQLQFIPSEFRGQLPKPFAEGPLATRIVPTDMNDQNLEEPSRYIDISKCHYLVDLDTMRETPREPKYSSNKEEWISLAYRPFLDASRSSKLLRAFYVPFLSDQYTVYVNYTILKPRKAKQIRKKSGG
UniProt Q6RW13: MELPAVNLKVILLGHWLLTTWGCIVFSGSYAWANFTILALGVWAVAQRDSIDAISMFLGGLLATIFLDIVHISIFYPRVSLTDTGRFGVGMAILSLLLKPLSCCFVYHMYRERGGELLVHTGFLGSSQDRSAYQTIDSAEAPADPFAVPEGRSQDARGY
UniProt O60266: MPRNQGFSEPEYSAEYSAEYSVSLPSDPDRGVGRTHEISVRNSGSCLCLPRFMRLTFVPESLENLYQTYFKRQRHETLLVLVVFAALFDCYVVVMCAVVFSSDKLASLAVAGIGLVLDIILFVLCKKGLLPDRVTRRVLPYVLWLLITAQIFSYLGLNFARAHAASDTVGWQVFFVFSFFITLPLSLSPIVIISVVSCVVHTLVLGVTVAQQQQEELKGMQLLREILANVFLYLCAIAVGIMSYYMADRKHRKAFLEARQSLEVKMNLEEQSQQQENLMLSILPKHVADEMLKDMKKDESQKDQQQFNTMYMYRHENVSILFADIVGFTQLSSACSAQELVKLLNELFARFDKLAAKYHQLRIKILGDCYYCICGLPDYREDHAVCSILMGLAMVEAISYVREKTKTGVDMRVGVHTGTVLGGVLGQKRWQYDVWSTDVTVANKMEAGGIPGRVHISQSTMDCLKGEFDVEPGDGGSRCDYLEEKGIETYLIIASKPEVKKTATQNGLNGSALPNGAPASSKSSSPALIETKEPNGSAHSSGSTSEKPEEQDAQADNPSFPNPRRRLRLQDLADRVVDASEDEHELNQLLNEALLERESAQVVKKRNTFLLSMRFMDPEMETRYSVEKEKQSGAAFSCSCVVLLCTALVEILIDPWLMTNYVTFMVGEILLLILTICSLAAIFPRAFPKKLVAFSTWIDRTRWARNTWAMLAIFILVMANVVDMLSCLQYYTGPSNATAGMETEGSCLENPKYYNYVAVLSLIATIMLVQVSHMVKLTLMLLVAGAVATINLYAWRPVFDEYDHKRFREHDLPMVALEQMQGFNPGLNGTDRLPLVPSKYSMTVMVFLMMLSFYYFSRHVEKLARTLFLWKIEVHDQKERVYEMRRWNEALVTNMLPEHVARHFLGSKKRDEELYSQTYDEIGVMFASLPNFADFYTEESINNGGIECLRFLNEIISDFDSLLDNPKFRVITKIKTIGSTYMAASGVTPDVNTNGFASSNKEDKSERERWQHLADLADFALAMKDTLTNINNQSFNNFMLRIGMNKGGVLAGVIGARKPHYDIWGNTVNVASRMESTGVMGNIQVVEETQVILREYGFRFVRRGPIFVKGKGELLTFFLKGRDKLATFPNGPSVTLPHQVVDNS
UniProt O43488: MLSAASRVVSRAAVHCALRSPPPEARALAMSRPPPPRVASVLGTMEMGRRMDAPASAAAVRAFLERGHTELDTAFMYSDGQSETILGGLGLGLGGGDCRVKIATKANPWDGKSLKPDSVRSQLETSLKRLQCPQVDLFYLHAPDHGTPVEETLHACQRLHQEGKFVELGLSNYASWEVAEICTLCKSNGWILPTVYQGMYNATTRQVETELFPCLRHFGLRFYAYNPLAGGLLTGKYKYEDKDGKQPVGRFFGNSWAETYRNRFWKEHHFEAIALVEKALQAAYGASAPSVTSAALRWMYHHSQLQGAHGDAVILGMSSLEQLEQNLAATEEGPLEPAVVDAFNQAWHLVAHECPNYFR
UniProt Q53H80, whole entry, looked up: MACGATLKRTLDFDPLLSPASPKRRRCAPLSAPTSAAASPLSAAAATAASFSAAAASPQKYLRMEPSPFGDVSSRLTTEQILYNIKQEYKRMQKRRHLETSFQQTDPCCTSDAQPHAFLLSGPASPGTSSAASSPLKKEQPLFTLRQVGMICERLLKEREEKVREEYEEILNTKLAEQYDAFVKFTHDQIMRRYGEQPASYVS
UniProt Q9BVK2: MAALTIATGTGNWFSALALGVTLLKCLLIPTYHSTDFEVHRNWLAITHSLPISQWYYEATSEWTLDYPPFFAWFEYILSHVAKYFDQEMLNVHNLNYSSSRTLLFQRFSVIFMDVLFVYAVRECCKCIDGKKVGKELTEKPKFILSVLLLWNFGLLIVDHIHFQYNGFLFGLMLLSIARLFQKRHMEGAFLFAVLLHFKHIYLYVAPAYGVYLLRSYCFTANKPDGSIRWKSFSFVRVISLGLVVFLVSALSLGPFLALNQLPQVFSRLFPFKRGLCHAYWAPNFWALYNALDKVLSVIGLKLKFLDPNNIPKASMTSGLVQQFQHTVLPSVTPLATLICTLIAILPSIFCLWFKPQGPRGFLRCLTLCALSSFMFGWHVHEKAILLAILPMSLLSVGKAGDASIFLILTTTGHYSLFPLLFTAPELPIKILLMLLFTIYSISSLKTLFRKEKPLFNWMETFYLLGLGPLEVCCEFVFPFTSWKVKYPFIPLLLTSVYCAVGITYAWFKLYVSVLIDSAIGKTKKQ
UniProt Q9Y303: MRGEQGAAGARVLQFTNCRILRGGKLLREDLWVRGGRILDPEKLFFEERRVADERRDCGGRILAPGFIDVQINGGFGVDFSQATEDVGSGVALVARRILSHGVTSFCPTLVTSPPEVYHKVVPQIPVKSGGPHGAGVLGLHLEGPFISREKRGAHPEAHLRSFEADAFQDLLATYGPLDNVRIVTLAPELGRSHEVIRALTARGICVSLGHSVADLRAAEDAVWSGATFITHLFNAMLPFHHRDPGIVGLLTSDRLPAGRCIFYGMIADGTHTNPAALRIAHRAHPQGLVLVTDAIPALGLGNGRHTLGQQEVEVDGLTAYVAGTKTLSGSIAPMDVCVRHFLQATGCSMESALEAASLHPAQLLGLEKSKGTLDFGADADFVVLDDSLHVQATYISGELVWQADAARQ
UniProt Q9NRZ5: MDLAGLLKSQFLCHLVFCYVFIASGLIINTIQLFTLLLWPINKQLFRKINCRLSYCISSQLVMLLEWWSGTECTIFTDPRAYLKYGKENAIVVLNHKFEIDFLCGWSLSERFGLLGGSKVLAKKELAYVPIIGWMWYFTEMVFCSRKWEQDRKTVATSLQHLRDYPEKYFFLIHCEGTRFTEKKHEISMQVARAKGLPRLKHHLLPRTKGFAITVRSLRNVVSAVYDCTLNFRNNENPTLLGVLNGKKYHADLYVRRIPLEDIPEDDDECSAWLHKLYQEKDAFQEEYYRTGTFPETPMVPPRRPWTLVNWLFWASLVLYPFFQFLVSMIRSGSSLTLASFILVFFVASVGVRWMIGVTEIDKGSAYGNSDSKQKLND
UniProt P00568: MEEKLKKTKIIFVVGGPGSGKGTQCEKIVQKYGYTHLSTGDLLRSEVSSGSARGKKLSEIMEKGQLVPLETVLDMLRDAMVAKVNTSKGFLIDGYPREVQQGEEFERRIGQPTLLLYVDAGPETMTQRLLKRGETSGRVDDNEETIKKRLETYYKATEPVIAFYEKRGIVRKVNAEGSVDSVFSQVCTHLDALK
UniProt P52594: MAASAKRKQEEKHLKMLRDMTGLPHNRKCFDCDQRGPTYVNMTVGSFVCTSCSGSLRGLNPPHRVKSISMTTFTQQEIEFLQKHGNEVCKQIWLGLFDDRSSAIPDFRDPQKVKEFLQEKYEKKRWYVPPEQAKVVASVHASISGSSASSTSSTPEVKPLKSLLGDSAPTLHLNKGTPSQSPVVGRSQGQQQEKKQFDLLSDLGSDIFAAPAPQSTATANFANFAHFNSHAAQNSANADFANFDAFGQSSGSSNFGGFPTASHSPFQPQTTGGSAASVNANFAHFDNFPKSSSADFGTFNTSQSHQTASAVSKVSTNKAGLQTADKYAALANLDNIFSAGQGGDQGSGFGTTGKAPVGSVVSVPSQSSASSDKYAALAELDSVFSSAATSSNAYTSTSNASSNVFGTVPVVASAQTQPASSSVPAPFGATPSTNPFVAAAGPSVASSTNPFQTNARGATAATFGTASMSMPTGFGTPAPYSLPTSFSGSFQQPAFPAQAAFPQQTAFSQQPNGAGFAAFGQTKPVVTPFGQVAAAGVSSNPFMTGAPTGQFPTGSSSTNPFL

Legend:
Assay in all cases: log2 fold change, soluble protein after heating vs DMSO (PISA); higher = thermal stabilisation; K562 cells, 10 uM, 30 min; active = over 0.2 and 3.5 SD of the protein, either way, in both replicates (recomputed)
saracatinib = compound: CN1CCN(CCOc2cc(OC3CCOCC3)c3c(Nc4c(Cl)ccc5c4OCO5)ncnc3c2)CC1 [saracatinib]
How it was run: (§1)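 For each measurement, 10 μM compound was applied for 30 min to K562 cells at 2×10^6 cells/mL. Aliquots were heated for 3 min across 48°C-58°C, pooled, and extracted in PBS with 0.5% NP-40 at 4°C; the supernatant after 21,000xg for 90 min was soluble protein. This was quantified by TMTpro 16plex LC-MS/MS with channel sums equalised, and thermal stability was reported relative to control samples from duplicates, on a log2 fold-change scale.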

sotrastaurin = compound: CN1CCN(c2nc(C3=C(c4c[nH]c5ccccc45)C(=O)NC3=O)c3ccccc3n2)CC1 [sotrastaurin]
How it was run: as §1

alvocidib = compound: CN1CC[C@H](c2c(O)cc(O)c3c(=O)cc(-c4ccccc4Cl)oc23)[C@H](O)C1 [alvocidib]
How it was run: as §1

Tubastatin A = compound: CN1CCc2c(c3ccccc3n2Cc2ccc(C(=O)NO)cc2)C1 [Tubastatin A]
How it was run: as §1

[1] = compound: CNC(=O)C1=CC=CC=C1NC2=NC(=NC=C2Cl)NC3=C(C=C(C=C3)N4CCOCC4)OC
How it was run: as §1

defactinib = compound: CNC(=O)c1ccc(Nc2ncc(C(F)(F)F)c(NCc3nccnc3N(C)S(C)(=O)=O)n2)cc1 [defactinib]
How it was run: as §1

rucaparib = compound: CNCc1ccc(-c2[nH]c3cc(F)cc4c3c2CCNC4=O)cc1 [rucaparib]
How it was run: as §1

[2] = compound: CNc1nc(-c2ccc3c(N)n[nH]c3c2)cc(N2C[C@@H](C(=O)NC3CCCCC3)CC[C@H]2C)n1
How it was run: as §1

encorafenib = compound: COC(=O)N[C@@H](C)CNc1nccc(-c2cn(C(C)C)nc2-c2cc(Cl)cc(NS(C)(=O)=O)c2F)n1 [encorafenib]
How it was run: as §1

[3] = compound: COC(=O)[C@H](CCSC)NC(=O)C1=C(C=C(C=C1)NC[C@H](CS)N)C2=CC=CC=C2
How it was run: as §1

[4] = compound: COC1=CC=C(C=C1)CN2C=CC3=C2C=C(C=C3)C(=O)NO
How it was run: as §1

filanesib = compound: CON(C)C(=O)N1N=C(c2cc(F)ccc2F)S[C@@]1(CCCN)c1ccccc1 [filanesib]
How it was run: as §1

zotarolimus = compound: CO[C@H]1C[C@@H]2CC[C@@H](C)[C@@](O)(O2)C(=O)C(=O)N2CCCC[C@H]2C(=O)O[C@H]([C@H](C)C[C@@H]2CC[C@H](n3cnnn3)[C@H](OC)C2)CC(=O)[C@H](C)/C=C(\C)[C@@H](O)[C@@H](OC)C(=O)[C@H](C)C[C@H](C)/C=C/C=C/C=C/1C [zotarolimus]
How it was run: as §1

idasanutlin = compound: COc1cc(C(=O)O)ccc1NC(=O)[C@@H]1N[C@@H](CC(C)(C)C)[C@](C#N)(c2ccc(Cl)cc2F)[C@H]1c1cccc(Cl)c1F [idasanutlin]
How it was run: as §1

alisertib = compound: COc1cc(Nc2ncc3c(n2)-c2ccc(Cl)cc2C(c2c(F)cccc2OC)=NC3)ccc1C(=O)O [alisertib]
How it was run: as §1

[5] = compound: COc1cc2nc(-c3cc(F)ccc3O)nc(N[C@@H]3CNC[C@H]3C(C)(C)O)c2cc1OC
How it was run: as §1

gefitinib = compound: COc1cc2ncnc(Nc3ccc(F)c(Cl)c3)c2cc1OCCCN1CCOCC1 [gefitinib]
How it was run: as §1

[6] = compound: COc1cccc2cc(-c3nc([C@H]4CC[C@H](C(=O)O)CC4)n4ncnc(N)c34)[nH]c12
How it was run: as §1

lapatinib = compound: CS(=O)(=O)CCNCc1ccc(-c2ccc3ncnc(Nc4ccc(OCc5cccc(F)c5)c(Cl)c4)c3c2)o1 [lapatinib]
How it was run: as §1

pictilisib = compound: CS(=O)(=O)N1CCN(Cc2cc3nc(-c4cccc5[nH]ncc45)nc(N4CCOCC4)c3s2)CC1 [pictilisib]
How it was run: as §1

Measured: log2 fold change

AGO4 (UniProt Q9HCK5)
inactive: saracatinib 0.003 | sotrastaurin 0.087 | alvocidib 0.095 | Tubastatin A -0.039 | [1] -0.018 | defactinib 0.064 | rucaparib 0.078 | [2] 0.006 | encorafenib -0.015 | [3] -0.048 | [4] -0.038 | filanesib 0.131 | zotarolimus -0.038 | idasanutlin -0.015 | alisertib -0.033 | [5] 0.041 | gefitinib -0.022 | [6] 0.027 | lapatinib 0.053 | pictilisib 0

ALKBH2 (UniProt Q6NS38)
inactive: saracatinib 0.046 | sotrastaurin 0.149 | alvocidib 0.062 | Tubastatin A 0.04 | defactinib 0.055 | rucaparib 0.027 | [2] -0.056 | encorafenib 0.132 | [3] -0.001 | [4] 0 | filanesib 0.135 | zotarolimus -0.096 | idasanutlin 0.058 | alisertib -0.302 | [5] -0.082 | gefitinib 0.024 | [6] 0.217 | lapatinib 0.074 | pictilisib -0.045

AIMP2 (UniProt Q13155)
inactive: saracatinib -0.121 | sotrastaurin -0.037 | alvocidib 0.251 | Tubastatin A 0.025 | [1] -0.104 | defactinib 0.31 | rucaparib 0.418 | [2] 0.183 | encorafenib 0.102 | [3] -0.046 | [4] -0.028 | filanesib 0.194 | zotarolimus 0.09 | idasanutlin 0.272 | alisertib -0.061 | [5] 0 | gefitinib -0.084 | [6] -0.236 | lapatinib 0.003 | pictilisib -0.147

ADO (UniProt Q96SZ5)
inactive: saracatinib 0.005 | sotrastaurin 0.024 | alvocidib -0.023 | Tubastatin A -0.04 | [1] -0.081 | defactinib -0.012 | rucaparib -0.067 | [2] -0.015 | encorafenib -0.082 | [3] 0.065 | [4] -0.048 | filanesib -0.008 | zotarolimus -0.026 | idasanutlin 0.001 | alisertib -0.072 | [5] -0.003 | gefitinib 0.008 | [6] 0.044 | lapatinib -0.023 | pictilisib 0.016

Looked up one by one from the list above (2):
AIMP2 (UniProt Q13155)
inactive: saracatinib -0.121 | sotrastaurin -0.037 | alvocidib 0.251 | Tubastatin A 0.025 | [1] -0.104 | defactinib 0.31 | rucaparib 0.418 | [2] 0.183 | encorafenib 0.102 | [3] -0.046 | [4] -0.028 | filanesib 0.194 | zotarolimus 0.09 | idasanutlin 0.272 | alisertib -0.061 | [5] 0 | gefitinib -0.084 | [6] -0.236 | lapatinib 0.003 | pictilisib -0.147

ADO (UniProt Q96SZ5)
inactive: saracatinib 0.005 | sotrastaurin 0.024 | alvocidib -0.023 | Tubastatin A -0.04 | [1] -0.081 | defactinib -0.012 | rucaparib -0.067 | [2] -0.015 | encorafenib -0.082 | [3] 0.065 | [4] -0.048 | filanesib -0.008 | zotarolimus -0.026 | idasanutlin 0.001 | alisertib -0.072 | [5] -0.003 | gefitinib 0.008 | [6] 0.044 | lapatinib -0.023 | pictilisib 0.016

Next results:

ALG9 isoform 3 (UniProt Q9H6U8)
inactive: saracatinib -0.007 | sotrastaurin 0.021 | alvocidib -0.028 | Tubastatin A 0.041 | [1] 0.036 | defactinib 0.023 | rucaparib 0.032 | [2] 0.014 | encorafenib -0.127 | [3] -0.005 | [4] -0.084 | filanesib -0.052 | zotarolimus 0.034 | idasanutlin 0.073 | alisertib 0.022 | [5] -0.016 | gefitinib -0.02 | [6] 0.016 | lapatinib -0.052 | pictilisib -0.011

AHCTF1 isoform 2 (UniProt Q8WYP5)
inactive: saracatinib 0.116 | sotrastaurin 0.069 | alvocidib -0.045 | Tubastatin A -0.03 | [1] 0.069 | defactinib -0.18 | rucaparib 0.314 | [2] 0.039 | encorafenib 0.132 | [3] -0.098 | [4] -0.036 | filanesib -0.154 | zotarolimus -0.034 | idasanutlin 0.072 | alisertib -0.107 | gefitinib 0.252 | [6] -0.043 | pictilisib -0.109

AGTRAP (UniProt Q6RW13)
inactive: saracatinib 0.046 | sotrastaurin 0.027 | alvocidib -0.056 | Tubastatin A -0.064 | [1] 0.01 | defactinib -0.075 | rucaparib 0 | [2] -0.025 | encorafenib 0.031 | [3] 0.099 | [4] -0.092 | filanesib -0.005 | zotarolimus 0.075 | idasanutlin -0.114 | alisertib 0.117 | [5] -0.049 | gefitinib 0.005 | [6] 0.025 | lapatinib -0.058 | pictilisib 0.052

ADCY3 (UniProt O60266)
inactive: saracatinib 0.036 | sotrastaurin -0.028 | alvocidib -0.105 | Tubastatin A 0.046 | [1] -0.076 | defactinib -0.025 | [2] 0.008 | [3] 0.13 | [4] -0.06 | filanesib 0.079 | zotarolimus 0.018 | idasanutlin -0.028 | [5] 0.111 | lapatinib -0.009 | pictilisib 0.071

AGO3 (UniProt Q9H9G7)
inactive: saracatinib -0.054 | sotrastaurin -0.066 | alvocidib 0.224 | Tubastatin A -0.041 | [1] 0 | defactinib 0.06 | rucaparib 0.169 | [2] 0.038 | encorafenib 0.059 | [3] 0.063 | [4] -0.053 | filanesib 0.059 | zotarolimus -0.099 | idasanutlin 0.044 | alisertib -0.165 | [5] 0.022 | gefitinib 0.003 | [6] -0.041 | lapatinib 0.05 | pictilisib -0.062

AKR7A2 (UniProt O43488)
inactive: saracatinib 0.117 | sotrastaurin -0.078 | alvocidib -0.161 | Tubastatin A -0.046 | [1] -0.011 | defactinib -0.026 | rucaparib 0.013 | [2] 0.02 | encorafenib -0.004 | [3] -0.027 | [4] -0.045 | filanesib -0.1 | zotarolimus 0.056 | idasanutlin -0.085 | alisertib -0.084 | [5] -0.045 | gefitinib 0.003 | [6] -0.088 | lapatinib 0.116 | pictilisib 0.043

AKIRIN2 (UniProt Q53H80)
inactive: saracatinib 0.022 | sotrastaurin -0.02 | alvocidib -0.378 | Tubastatin A 0.358 | [1] 0.094 | defactinib -0.073 | rucaparib 0.077 | [2] -0.101 | encorafenib -0.076 | [3] 0.075 | [4] -0.091 | filanesib 0.024 | zotarolimus 0.149 | idasanutlin -0.03 | alisertib 0.11 | [5] -0.106 | gefitinib -0.001 | [6] 0.121 | lapatinib 0.031 | pictilisib 0.153

ALG8 (UniProt Q9BVK2)
inactive: saracatinib 0.007 | sotrastaurin -0.094 | alvocidib 0.002 | Tubastatin A -0.018 | [1] 0.102 | defactinib 0.006 | rucaparib -0.068 | [2] 0.02 | encorafenib 0.044 | [3] 0.007 | [4] -0.036 | filanesib -0.1 | zotarolimus 0.029 | idasanutlin -0.197 | alisertib -0.005 | [5] -0.041 | gefitinib -0.029 | [6] 0.037 | lapatinib 0.043 | pictilisib -0.026

AMDHD2 (UniProt Q9Y303)
inactive: saracatinib 0.047 | sotrastaurin 0.013 | alvocidib -0.171 | Tubastatin A 0.309 | [1] 0.171 | defactinib -0.05 | rucaparib 0.229 | [2] 0.085 | encorafenib 0.003 | [3] -0.088 | filanesib -0.16 | zotarolimus -0.023 | [5] -0.123 | lapatinib 0.011 | pictilisib -0.158

AGPAT4 (UniProt Q9NRZ5)
inactive: saracatinib -0.118 | sotrastaurin 0.07 | alvocidib -0.075 | Tubastatin A -0.034 | [1] -0.051 | rucaparib 0.045 | [2] -0.246 | encorafenib -0.058 | filanesib -0.154 | zotarolimus 0.012 | alisertib -0.067 | [5] 0.109 | gefitinib 0.04 | [6] -0.081 | lapatinib 0.054 | pictilisib 0.034

AK1 (UniProt P00568)
inactive: saracatinib -0.004 | sotrastaurin 0.011 | alvocidib -0.062 | Tubastatin A 0.013 | [1] 0.064 | defactinib -0.042 | rucaparib 0.01 | [2] -0.003 | encorafenib -0.036 | [3] -0.01 | [4] 0.001 | filanesib -0.038 | zotarolimus -0.02 | idasanutlin -0.072 | alisertib -0.029 | [5] 0.007 | gefitinib -0.026 | [6] 0.009 | lapatinib -0.01 | pictilisib 0.208

AGFG1 isoform 4 (UniProt P52594)
inactive: saracatinib 0.039 | sotrastaurin -0.055 | alvocidib -0.086 | Tubastatin A -0.033 | [1] 0.001 | defactinib 0.01 | rucaparib -0.041 | [2] -0.048 | encorafenib 0.065 | [3] -0.048 | [4] 0.247 | filanesib 0.001 | zotarolimus 0.021 | idasanutlin -0.042 | alisertib -0.001 | [5] 0.048 | gefitinib 0.016 | [6] -0.027 | lapatinib 0.015 | pictilisib -0.045

AMN1 (UniProt Q8IY45)
inactive: saracatinib 0.011 | sotrastaurin -0.095 | alvocidib 0.081 | Tubastatin A 0.167 | [1] 0.038 | defactinib -0.28 | rucaparib -0.135 | [2] 0.017 | encorafenib 0.026 | [3] 0.197 | filanesib -0.043 | zotarolimus 0.052 | idasanutlin -0.001 | alisertib -0.121 | [5] -0.057 | gefitinib 0.108 | [6] 0.029 | lapatinib 0.059 | pictilisib 0.133
